PubChem BioAssay AID1259254 | NCATS – 2017
The deposit covers about 59,000 reagents; below is an unselected part. About 1,550 of all reagents (2.6%) count as active. 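G2 share is only a proxy for re-replication; each gene was hit by three separate siRNAs, and active genes were retested.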 The raw values are shown without normalisation. Entries without a mark were called inactive. Reagents against one gene are numbered here. Not given: the amount of reagent.

Purpose: 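Genome-wide screen for genes that prevent DNA re-replication in cancer cells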 (primary screen)
Cell system: human HCT116 colorectal cancer cells
Reagent: single siRNA against human genes
Timing: 3 days
Measurement: 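Imaged Hoechst DNA stain sorts each cell into a cycle phase by DNA amount; per plate, G2 fraction set to 0% for non-targeting and 100% for GMNN siRNA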
Scale: G2 robust z-score and G2 cells, % of GMNN control: higher = more G2 cells, more excess DNA replication; raw share of cells in G2: higher = larger share of cells with G2 DNA content
Rule for the call: 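Active siRNAs have a G2 robust z of 5 or more median absolute deviations over the median, which in these data means about 38% or higher of GMNN control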

target | reagent | G2 robust z-score | G2 cells, % of GMNN control | raw share of cells in G2 (%)
RIDA (GeneID 10247) | 1 | -0.755 | -2.34 | 4.27
RIDA (GeneID 10247) | 2 | 0.499 | 6.48 | 6.65
RIDA (GeneID 10247) | 3 | -0.294 | 0.901 | 3.73
H2AC8 (GeneID 3012) | 1 | -1.38 | -6.74 | 0.884
H2AC8 (GeneID 3012) | 2 | -0.778 | -2.51 | 4.13
H2AC8 (GeneID 3012) | 3 | -0.483 | -0.43 | 3.93
MGAT4C (GeneID 25834) | 1 | -0.57 | -1.04 | 5.69
MGAT4C (GeneID 25834) | 2 | -0.486 | -0.451 | 4.04
MGAT4C (GeneID 25834) | 3 | -1.11 | -4.86 | 2.4
EEF1A1P48 (GeneID 729856) | 1 | -1.09 | -4.71 | 1.72
EEF1A1P48 (GeneID 729856) | 2 | -0.272 | 1.05 | 3.42
EEF1A1P48 (GeneID 729856) | 3 | -0.684 | -1.84 | 3.57
SLC4A2 (GeneID 6522) | 1 | 2.31 | 19.2 | 11.1
SLC4A2 (GeneID 6522) | 2 | 4.93 | 37.7 | 16.4
SLC4A2 (GeneID 6522) | 3 | 0.812 | 8.68 | 8.6
APOM (GeneID 55937) | 1 | 0.606 | 7.23 | 7.2
APOM (GeneID 55937) | 2 | -0.0583 | 2.56 | 5.68
APOM (GeneID 55937) | 3 | -0.796 | -2.63 | 2.19
SESN1 (GeneID 27244) | 1 | -0.735 | -2.2 | 3.01
SESN1 (GeneID 27244) | 2 | 2.68 | 21.8 | 12.8
SESN1 (GeneID 27244) | 3 | -0.586 | -1.15 | 2.89
PNPLA2 (GeneID 57104) | 1 | -0.823 | -2.83 | 3.23
PNPLA2 (GeneID 57104) | 2 | 1.27 | 11.9 | 10.1
PNPLA2 (GeneID 57104) | 3 | -0.232 | 1.33 | 3.45
PHF1 (GeneID 5252) | 1 | -0.024 | 2.8 | 4.57
PHF1 (GeneID 5252) | 2 | -0.204 | 1.53 | 5.56
PHF1 (GeneID 5252) | 3 | 1.09 | 10.6 | 6.97
LOC729254 (GeneID 729254) | 1 | -0.72 | -2.1 | 2.29
LOC729254 (GeneID 729254) | 2 | -0.667 | -1.73 | 3.27
LOC729254 (GeneID 729254) | 3 | -0.526 | -0.73 | 3.08
RNASE3 (GeneID 6037) | 1 | -0.367 | 0.385 | 5.11
RNASE3 (GeneID 6037) | 2 | -0.911 | -3.44 | 3.37
RNASE3 (GeneID 6037) | 3 | -0.873 | -3.17 | 3.09
FGF19 (GeneID 9965) | 1 | -0.345 | 0.539 | 5.57
FGF19 (GeneID 9965) | 2 | 0.169 | 4.16 | 5.68
FGF19 (GeneID 9965) | 3 | 0.498 | 6.47 | 5.76
THAP1 (GeneID 55145) | 1 | -0.358 | 0.448 | 4.52
THAP1 (GeneID 55145) | 2 | -0.576 | -1.08 | 4.05
THAP1 (GeneID 55145) | 3 | -1.22 | -5.61 | 3.97
PRSS46P (GeneID 100287362) | 1 | 0.731 | 8.11 | 6.27
PRSS46P (GeneID 100287362) | 2 | -1.2 | -5.47 | 1.83
PRSS46P (GeneID 100287362) | 3 | -1.06 | -4.5 | 1.86
NDUFB3 (GeneID 4709) | 1 | -1.01 | -4.11 | 1.84
NDUFB3 (GeneID 4709) | 2 | -0.657 | -1.65 | 4.72
NDUFB3 (GeneID 4709) | 3 | 0.836 | 8.85 | 8.98

11 neighbouring records from above, quoted:
target | reagent | G2 robust z-score | G2 cells, % of GMNN control | raw share of cells in G2 (%)
APOM (GeneID 55937) | 2 | -0.0583 | 2.56 | 5.68
APOM (GeneID 55937) | 3 | -0.796 | -2.63 | 2.19
SESN1 (GeneID 27244) | 1 | -0.735 | -2.2 | 3.01
SESN1 (GeneID 27244) | 2 | 2.68 | 21.8 | 12.8
SESN1 (GeneID 27244) | 3 | -0.586 | -1.15 | 2.89
PNPLA2 (GeneID 57104) | 1 | -0.823 | -2.83 | 3.23
PNPLA2 (GeneID 57104) | 2 | 1.27 | 11.9 | 10.1
PNPLA2 (GeneID 57104) | 3 | -0.232 | 1.33 | 3.45
PHF1 (GeneID 5252) | 1 | -0.024 | 2.8 | 4.57
PHF1 (GeneID 5252) | 2 | -0.204 | 1.53 | 5.56
PHF1 (GeneID 5252) | 3 | 1.09 | 10.6 | 6.97

Continued.
target | reagent | G2 robust z-score | G2 cells, % of GMNN control | raw share of cells in G2 (%)
PKD1 (GeneID 5310) | 1 | -0.933 | -3.6 | 3.63
PKD1 (GeneID 5310) | 2 | -0.474 | -0.365 | 4.19
PKD1 (GeneID 5310) | 3 | -0.515 | -0.656 | 3.3
PLOD1 (GeneID 5351) | 1 | 1.51 | 13.6 | 8.68
PLOD1 (GeneID 5351) | 2 | -0.604 | -1.28 | 4.54
PLOD1 (GeneID 5351) | 3 | 4.59 | 35.3 | 18.1
H2AZ1 (GeneID 3015) | 1 | -0.65 | -1.61 | 4.55
H2AZ1 (GeneID 3015) | 2 | -0.326 | 0.671 | 4.33
H2AZ1 (GeneID 3015) | 3 | -0.423 | -0.0115 | 3.52
CLLU1 (GeneID 574028) | 1 | -0.305 | 0.823 | 3.94
CLLU1 (GeneID 574028) | 2 | 2.19 | 18.4 | 10.4
CLLU1 (GeneID 574028) | 3 | -0.629 | -1.46 | 2.62
GGT6 (GeneID 124975) | 1 | -0.238 | 1.29 | 4.61
GGT6 (GeneID 124975) | 2 | 1.99 | 17 | 8.38
GGT6 (GeneID 124975) | 3 | -0.817 | -2.78 | 1.01
IFITM5 (GeneID 387733) | 1 | -0.357 | 0.459 | 3.6
IFITM5 (GeneID 387733) | 2 | 2.08 | 17.6 | 12.2
IFITM5 (GeneID 387733) | 3 | -0.891 | -3.3 | 2.64
RAB1AP2 (GeneID 643916) | 1 | 0.774 | 8.41 | 6.84
RAB1AP2 (GeneID 643916) | 2 | 1.92 | 16.5 | 9.19
RAB1AP2 (GeneID 643916) | 3 | -0.223 | 1.4 | 3.55
PTX3 (GeneID 5806) | 1 | -0.239 | 1.29 | 5.52
PTX3 (GeneID 5806) | 2 | -0.279 | 1.01 | 4.62
PTX3 (GeneID 5806) | 3 | -0.459 | -0.259 | 3.26
STPG4 (GeneID 285051) | 1 | -0.707 | -2.01 | 2.91
STPG4 (GeneID 285051) | 2 | 0.433 | 6.02 | 5.37
STPG4 (GeneID 285051) | 3 | -0.805 | -2.7 | 2.45
DUSP18 (GeneID 150290) | 1 | -1.03 | -4.28 | 3.41
DUSP18 (GeneID 150290) | 2 | 0.0313 | 3.19 | 5.26
DUSP18 (GeneID 150290) | 3 | 0.412 | 5.87 | 5.26
ZNF771 (GeneID 51333) | 1 | 0.513 | 6.57 | 5.11
ZNF771 (GeneID 51333) | 2 | -0.334 | 0.621 | 6.19
ZNF771 (GeneID 51333) | 3 | 0.17 | 4.16 | 4.94
SST (GeneID 6750) | 1 | 1.42 | 13 | 8.25
SST (GeneID 6750) | 2 | -0.836 | -2.92 | 4.7
SST (GeneID 6750) | 3 | 1.38 | 12.7 | 8.9
ACTG2 (GeneID 72) | 1 | 0.285 | 4.97 | 5.84
ACTG2 (GeneID 72) | 2 | -0.368 | 0.378 | 4.85
ACTG2 (GeneID 72) | 3 | -0.527 | -0.742 | 4.81
TTLL6 (GeneID 284076) | 1 | 0.157 | 4.07 | 5.77
TTLL6 (GeneID 284076) | 2 | -0.627 | -1.44 | 5.28
TTLL6 (GeneID 284076) | 3 | -0.455 | -0.232 | 4.87
